Reference: paper PMC7005904

Chains of the proteins cited; added tags and fusions are not shown.
UniProt Q92993: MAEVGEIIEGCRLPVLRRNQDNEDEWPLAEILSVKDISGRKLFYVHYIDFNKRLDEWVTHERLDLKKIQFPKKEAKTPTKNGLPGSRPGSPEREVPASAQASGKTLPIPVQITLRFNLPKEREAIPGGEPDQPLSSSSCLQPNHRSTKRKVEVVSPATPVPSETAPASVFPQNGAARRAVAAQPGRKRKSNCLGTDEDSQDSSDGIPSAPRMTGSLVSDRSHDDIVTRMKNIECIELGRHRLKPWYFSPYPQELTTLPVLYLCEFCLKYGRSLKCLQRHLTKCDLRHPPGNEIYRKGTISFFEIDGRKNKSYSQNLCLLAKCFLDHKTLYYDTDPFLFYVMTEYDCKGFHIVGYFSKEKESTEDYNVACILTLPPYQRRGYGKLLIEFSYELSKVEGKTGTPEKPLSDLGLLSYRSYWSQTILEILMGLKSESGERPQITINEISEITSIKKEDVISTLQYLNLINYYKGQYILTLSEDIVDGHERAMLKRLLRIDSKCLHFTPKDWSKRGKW
UniProt Q9NPF5: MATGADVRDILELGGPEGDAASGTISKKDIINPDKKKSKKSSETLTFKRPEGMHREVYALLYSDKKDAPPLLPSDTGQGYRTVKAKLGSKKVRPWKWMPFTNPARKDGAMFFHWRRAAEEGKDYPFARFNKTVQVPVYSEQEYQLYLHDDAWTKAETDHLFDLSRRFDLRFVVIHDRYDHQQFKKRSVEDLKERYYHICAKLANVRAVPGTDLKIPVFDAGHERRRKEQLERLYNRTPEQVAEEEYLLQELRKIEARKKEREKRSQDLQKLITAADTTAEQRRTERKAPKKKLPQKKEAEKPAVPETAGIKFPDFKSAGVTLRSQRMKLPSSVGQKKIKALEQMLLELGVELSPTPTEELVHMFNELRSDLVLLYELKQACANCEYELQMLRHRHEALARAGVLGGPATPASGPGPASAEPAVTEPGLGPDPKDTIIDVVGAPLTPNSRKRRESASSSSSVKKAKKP
UniProt Q9Y265: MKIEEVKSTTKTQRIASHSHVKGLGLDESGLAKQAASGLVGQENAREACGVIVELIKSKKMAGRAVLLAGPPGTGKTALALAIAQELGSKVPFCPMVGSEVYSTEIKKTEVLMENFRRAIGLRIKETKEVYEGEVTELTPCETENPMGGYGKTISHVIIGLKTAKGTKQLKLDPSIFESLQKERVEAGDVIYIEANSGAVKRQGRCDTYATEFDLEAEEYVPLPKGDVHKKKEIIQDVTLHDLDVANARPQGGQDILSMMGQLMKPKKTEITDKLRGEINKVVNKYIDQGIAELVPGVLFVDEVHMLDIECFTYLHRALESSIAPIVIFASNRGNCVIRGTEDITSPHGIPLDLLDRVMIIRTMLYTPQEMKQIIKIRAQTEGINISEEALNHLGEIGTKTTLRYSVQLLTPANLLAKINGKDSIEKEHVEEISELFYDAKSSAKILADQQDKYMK
UniProt Q8IY92: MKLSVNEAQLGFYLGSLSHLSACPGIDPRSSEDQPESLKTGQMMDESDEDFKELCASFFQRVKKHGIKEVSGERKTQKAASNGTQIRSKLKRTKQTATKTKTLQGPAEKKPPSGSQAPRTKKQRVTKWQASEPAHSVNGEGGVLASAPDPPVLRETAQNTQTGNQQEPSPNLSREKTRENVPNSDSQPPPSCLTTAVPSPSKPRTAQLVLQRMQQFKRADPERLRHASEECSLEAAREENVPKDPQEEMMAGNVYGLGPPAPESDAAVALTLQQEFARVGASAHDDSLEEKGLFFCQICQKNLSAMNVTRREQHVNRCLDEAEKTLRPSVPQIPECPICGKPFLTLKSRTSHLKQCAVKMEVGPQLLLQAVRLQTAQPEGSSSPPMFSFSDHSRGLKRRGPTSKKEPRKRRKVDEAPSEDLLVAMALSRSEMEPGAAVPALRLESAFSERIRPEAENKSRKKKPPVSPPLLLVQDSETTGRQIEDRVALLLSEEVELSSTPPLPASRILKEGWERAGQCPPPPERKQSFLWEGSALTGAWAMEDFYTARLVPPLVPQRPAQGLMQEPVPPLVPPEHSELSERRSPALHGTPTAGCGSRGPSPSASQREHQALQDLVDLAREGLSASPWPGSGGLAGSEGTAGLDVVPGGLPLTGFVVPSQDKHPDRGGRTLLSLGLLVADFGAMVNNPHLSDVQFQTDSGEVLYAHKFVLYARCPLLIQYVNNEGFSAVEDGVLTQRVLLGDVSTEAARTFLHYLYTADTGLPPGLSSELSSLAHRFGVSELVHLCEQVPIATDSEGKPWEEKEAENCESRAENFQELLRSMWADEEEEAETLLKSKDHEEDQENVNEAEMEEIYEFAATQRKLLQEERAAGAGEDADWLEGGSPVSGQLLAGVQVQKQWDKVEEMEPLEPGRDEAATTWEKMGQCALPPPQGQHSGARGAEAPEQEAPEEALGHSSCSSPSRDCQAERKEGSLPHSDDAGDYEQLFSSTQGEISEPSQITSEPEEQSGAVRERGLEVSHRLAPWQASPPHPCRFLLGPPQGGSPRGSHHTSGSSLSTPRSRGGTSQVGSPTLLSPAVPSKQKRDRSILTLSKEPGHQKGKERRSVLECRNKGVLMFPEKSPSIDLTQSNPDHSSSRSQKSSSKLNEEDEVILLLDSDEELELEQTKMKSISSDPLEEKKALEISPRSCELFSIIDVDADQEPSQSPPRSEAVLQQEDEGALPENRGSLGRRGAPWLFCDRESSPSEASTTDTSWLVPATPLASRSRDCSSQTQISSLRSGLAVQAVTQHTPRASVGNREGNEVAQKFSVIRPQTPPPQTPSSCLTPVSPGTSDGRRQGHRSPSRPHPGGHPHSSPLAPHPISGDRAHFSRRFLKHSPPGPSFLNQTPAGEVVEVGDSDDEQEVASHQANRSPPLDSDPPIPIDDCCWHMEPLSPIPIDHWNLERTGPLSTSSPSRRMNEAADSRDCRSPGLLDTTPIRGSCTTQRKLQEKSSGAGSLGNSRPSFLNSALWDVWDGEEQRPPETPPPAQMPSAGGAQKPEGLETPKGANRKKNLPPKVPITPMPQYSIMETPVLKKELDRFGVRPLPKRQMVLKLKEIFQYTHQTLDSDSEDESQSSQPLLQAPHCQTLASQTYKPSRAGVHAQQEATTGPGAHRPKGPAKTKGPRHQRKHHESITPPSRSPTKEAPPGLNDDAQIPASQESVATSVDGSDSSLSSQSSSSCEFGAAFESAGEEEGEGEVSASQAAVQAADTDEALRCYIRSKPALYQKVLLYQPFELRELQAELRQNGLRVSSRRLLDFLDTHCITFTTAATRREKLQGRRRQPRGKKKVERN

Legend:
SFB-tagged TIP60 = SFB-tagged TIP60 (UniProt Q92993); assay: affinity purification with mass spectrometry; tandem affinity purification from HEK293T stably expressing the SFB-tagged bait: streptavidin beads, biotin elution, S-protein beads; NETN buffer (20 mM Tris-HCl pH 8.0, 100 mM NaCl, 1 mM EDTA, 0.5% Nonidet P-40), 4 °C; performed once
[1] = molecular target: T1, SFB-tagged XPF (wild type) (UniProt Q92889); assay: as above
T1 sequence: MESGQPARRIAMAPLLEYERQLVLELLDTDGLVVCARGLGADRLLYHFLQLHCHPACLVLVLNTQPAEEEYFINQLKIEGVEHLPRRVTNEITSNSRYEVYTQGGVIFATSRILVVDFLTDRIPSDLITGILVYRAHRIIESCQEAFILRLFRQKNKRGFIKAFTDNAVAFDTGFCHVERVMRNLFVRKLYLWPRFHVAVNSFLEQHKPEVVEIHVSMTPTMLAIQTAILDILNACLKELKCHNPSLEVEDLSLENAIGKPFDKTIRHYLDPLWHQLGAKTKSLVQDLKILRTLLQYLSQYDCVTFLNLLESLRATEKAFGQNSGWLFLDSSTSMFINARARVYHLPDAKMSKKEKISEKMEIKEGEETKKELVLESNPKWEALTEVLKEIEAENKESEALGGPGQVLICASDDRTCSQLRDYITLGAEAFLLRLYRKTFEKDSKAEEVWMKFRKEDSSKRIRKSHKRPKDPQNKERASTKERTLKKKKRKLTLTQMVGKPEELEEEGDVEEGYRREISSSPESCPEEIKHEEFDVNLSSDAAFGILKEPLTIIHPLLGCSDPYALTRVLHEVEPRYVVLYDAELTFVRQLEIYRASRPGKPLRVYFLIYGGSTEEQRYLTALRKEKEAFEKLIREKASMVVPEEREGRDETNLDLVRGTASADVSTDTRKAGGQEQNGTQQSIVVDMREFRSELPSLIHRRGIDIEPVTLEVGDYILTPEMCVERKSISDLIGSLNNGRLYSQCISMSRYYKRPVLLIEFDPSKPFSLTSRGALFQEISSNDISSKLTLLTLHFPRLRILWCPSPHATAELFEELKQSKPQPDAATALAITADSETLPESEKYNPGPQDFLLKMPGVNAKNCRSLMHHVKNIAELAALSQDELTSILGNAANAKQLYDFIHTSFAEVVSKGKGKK

DMAP1 (from UniProt Q9NPF5 1-467)
binding (SFB-tagged TIP60): binds

RUVBL1 (from UniProt Q9Y265 1-456)
binding (SFB-tagged TIP60): binds

SLX4 (from UniProt Q8IY92 1-1834)
binding [1]: binds

B1: XPF, endogenous in HEK293T (protein, UniProt Q92889 1-916)
chain: T1 sequence
binding (SFB-tagged TIP60): binds

No constants are given. Whether binding was seen depends on the method and setting. Binding seen in cells or lysates may run through a third protein. Here binding means that the protein was enriched with, or labelled near, the bait; the list need not be complete. For some of these results: Tags and fused reporters may be left off the sequences shown.
